Reference: the supplement of paper PMC10849652
The list shows a part of the results.

Sequences of proteins named here, by UniProt entry; tags and fusion partners are left off. A change or cut given only in a name is not applied to a line headed by its entry.
UniProt Q14119: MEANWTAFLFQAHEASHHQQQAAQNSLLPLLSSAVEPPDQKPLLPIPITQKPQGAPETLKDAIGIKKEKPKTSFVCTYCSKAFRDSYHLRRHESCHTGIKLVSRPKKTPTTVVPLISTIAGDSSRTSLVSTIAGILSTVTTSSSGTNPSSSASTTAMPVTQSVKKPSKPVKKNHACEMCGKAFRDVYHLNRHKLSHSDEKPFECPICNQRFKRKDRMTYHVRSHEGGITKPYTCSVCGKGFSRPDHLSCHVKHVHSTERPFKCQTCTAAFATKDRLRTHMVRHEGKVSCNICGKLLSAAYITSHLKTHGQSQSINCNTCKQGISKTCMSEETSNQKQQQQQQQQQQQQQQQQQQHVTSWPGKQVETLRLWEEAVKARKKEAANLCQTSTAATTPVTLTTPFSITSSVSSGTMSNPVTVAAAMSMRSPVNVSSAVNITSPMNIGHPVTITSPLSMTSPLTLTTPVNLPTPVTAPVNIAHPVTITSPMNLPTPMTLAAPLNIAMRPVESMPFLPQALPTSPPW
UniProt P45880: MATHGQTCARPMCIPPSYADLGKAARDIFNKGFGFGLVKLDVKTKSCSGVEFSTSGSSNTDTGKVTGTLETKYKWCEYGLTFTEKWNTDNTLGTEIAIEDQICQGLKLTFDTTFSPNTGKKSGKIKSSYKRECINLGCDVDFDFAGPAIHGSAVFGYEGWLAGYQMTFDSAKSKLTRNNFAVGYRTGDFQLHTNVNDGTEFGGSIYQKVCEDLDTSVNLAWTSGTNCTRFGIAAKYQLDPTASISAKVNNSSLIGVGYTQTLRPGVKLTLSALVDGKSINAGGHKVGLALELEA
UniProt P98170, whole entry, looked up: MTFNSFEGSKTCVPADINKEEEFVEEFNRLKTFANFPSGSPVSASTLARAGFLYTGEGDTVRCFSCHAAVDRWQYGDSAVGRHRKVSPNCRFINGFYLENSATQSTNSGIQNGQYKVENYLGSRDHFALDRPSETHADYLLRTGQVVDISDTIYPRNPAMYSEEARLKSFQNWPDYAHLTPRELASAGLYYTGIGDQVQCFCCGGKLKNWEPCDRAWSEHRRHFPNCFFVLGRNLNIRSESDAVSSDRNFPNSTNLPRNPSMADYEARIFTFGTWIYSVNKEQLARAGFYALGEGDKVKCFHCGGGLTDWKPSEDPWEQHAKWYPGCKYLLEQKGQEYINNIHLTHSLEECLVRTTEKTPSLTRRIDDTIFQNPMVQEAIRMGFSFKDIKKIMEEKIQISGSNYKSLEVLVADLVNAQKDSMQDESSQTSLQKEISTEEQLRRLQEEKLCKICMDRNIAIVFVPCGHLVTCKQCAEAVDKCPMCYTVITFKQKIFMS
UniProt Q8N1B4: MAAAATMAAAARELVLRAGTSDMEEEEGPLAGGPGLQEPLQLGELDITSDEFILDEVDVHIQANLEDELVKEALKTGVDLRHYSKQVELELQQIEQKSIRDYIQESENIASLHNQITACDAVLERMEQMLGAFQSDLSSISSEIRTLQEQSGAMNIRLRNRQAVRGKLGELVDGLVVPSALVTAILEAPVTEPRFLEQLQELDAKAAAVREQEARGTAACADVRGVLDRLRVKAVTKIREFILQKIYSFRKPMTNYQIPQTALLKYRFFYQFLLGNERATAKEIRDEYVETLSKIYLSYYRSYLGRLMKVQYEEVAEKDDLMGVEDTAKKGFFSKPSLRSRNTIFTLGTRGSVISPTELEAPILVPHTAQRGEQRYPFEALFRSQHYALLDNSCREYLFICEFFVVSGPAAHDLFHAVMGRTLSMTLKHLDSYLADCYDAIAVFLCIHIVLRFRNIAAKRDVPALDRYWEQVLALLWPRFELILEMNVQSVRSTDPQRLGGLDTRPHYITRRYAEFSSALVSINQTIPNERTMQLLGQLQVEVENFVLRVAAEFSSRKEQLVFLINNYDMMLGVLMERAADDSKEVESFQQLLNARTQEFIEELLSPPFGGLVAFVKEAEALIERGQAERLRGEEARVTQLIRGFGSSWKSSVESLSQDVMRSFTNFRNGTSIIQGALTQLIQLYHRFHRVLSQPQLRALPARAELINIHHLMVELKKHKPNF
UniProt Q9HAD4: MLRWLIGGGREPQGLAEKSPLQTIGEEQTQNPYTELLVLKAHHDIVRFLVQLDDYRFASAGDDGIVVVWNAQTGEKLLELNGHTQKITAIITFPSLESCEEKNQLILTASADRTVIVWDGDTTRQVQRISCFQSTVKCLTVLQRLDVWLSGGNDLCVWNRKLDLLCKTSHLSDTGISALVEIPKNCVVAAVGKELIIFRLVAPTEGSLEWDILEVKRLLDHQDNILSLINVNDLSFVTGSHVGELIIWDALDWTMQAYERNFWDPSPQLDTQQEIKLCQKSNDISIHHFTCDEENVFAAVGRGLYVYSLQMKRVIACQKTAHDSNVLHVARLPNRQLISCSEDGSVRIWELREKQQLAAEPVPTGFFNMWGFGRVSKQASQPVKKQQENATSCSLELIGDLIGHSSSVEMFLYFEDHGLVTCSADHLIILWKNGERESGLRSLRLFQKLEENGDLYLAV
UniProt Q96AX1: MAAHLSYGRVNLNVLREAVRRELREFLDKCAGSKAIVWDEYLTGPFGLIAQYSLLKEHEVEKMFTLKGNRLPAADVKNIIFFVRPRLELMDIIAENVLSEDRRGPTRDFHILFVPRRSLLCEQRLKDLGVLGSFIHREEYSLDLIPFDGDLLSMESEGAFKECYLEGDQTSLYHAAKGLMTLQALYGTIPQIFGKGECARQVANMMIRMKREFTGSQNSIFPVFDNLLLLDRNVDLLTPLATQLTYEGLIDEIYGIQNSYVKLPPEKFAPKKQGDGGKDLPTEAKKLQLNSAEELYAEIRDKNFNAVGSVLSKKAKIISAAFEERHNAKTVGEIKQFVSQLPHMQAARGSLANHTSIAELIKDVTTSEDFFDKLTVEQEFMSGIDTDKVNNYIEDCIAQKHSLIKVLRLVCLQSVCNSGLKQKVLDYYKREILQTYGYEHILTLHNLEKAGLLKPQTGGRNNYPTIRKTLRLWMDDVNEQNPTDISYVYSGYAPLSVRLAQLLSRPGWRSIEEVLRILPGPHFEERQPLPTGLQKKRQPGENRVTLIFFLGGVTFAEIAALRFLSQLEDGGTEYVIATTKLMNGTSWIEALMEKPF
UniProt Q9H4A3: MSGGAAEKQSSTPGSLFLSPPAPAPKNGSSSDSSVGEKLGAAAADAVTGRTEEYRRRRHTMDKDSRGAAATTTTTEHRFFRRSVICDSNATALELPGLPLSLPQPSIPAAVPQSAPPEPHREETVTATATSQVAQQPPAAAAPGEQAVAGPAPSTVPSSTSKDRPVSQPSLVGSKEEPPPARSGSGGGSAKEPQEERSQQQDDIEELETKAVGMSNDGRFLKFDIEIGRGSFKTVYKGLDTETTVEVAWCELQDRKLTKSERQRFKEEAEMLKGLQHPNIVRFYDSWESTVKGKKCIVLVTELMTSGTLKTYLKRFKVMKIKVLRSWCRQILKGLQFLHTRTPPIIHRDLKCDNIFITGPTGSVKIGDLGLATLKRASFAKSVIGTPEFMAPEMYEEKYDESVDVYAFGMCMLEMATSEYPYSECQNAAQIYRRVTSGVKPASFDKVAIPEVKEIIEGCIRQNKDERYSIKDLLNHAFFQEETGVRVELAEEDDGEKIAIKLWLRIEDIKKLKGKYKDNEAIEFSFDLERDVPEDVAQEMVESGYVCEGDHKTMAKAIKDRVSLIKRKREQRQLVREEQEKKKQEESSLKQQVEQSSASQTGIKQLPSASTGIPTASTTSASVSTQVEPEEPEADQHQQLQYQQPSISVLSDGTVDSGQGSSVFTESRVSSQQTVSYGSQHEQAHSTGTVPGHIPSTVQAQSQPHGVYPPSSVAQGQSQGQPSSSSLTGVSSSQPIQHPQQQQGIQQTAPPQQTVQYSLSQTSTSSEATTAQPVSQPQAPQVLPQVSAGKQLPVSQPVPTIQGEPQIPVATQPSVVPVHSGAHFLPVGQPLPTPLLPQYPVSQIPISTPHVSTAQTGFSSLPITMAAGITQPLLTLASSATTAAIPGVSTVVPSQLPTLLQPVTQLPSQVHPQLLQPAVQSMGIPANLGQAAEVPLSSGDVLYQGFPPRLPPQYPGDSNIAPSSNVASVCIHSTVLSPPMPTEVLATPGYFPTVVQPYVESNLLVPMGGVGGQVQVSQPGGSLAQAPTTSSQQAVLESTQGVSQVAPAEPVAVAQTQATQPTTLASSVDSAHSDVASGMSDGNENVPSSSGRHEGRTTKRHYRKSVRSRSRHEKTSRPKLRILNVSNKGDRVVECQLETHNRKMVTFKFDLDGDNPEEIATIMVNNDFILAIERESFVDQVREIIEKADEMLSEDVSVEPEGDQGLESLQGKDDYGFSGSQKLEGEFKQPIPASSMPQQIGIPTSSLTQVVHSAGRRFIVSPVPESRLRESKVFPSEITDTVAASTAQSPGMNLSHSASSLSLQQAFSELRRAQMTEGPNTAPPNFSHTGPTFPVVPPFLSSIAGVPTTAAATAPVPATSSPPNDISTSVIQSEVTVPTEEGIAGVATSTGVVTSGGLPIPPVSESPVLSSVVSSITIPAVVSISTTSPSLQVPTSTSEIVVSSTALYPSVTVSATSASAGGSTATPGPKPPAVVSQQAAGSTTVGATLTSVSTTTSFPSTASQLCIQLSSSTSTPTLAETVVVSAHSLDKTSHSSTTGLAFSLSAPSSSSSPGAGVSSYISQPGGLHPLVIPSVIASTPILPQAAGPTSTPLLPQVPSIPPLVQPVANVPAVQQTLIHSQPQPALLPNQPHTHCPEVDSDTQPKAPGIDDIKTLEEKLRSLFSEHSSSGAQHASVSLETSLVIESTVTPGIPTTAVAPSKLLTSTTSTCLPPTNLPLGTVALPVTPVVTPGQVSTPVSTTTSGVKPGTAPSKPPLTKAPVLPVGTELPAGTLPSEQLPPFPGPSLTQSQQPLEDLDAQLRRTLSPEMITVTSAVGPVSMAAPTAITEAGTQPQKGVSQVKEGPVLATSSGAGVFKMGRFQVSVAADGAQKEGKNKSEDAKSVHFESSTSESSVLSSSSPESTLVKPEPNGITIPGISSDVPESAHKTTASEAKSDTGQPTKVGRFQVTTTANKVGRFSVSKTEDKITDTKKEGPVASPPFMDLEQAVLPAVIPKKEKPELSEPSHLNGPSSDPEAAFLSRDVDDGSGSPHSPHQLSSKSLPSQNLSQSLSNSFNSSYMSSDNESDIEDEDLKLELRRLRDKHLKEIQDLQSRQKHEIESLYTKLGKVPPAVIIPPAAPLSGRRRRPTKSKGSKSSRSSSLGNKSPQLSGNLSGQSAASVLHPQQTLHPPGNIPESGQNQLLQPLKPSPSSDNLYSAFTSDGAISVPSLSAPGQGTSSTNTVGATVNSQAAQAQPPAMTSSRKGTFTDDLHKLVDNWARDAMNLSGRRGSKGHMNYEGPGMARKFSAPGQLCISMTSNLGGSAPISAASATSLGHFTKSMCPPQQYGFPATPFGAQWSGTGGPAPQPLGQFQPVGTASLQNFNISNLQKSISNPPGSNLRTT
UniProt Q9UGM6: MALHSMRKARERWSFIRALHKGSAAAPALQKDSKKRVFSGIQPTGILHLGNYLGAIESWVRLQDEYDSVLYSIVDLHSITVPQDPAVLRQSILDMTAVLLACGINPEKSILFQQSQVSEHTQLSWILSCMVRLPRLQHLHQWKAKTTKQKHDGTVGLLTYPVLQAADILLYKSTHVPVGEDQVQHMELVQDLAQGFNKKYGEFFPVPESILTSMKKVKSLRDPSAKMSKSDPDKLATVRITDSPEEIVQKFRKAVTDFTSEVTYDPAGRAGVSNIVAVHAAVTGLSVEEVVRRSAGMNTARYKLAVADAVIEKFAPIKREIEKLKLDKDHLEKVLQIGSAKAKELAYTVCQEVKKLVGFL
UniProt Q9H6R7: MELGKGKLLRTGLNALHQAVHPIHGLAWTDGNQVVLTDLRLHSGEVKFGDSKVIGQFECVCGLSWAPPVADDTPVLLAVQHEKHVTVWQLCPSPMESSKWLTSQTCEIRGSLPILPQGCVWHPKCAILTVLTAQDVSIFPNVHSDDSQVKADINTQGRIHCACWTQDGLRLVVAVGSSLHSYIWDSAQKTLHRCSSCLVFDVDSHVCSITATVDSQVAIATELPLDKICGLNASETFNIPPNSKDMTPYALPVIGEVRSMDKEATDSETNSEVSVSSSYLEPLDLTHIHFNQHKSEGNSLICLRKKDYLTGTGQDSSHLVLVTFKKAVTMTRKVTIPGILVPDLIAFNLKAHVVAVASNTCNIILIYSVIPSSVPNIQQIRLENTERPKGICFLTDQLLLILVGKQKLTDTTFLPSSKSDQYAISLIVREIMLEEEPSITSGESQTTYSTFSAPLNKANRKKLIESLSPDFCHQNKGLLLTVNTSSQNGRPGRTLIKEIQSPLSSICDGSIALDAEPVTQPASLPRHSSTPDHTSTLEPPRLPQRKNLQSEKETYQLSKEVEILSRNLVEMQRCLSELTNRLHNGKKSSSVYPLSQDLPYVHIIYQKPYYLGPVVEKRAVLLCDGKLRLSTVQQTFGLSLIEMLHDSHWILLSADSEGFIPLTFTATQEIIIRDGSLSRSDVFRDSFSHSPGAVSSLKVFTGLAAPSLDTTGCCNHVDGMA

Legend:
Experiment in all cases: log2 fold change, soluble protein after heating vs DMSO (PISA); higher = thermal stabilisation; K562 cells, 10 uM, 30 min; active = over 0.2 and 3.5 SD of the protein, either way, in both replicates (recomputed)
saracatinib = compound: CN1CCN(CCOc2cc(OC3CCOCC3)c3c(Nc4c(Cl)ccc5c4OCO5)ncnc3c2)CC1 [saracatinib]
Method in brief: (§1)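 Thermal stability values are relative to control samples and come from duplicates. They are expressed as log2 fold changes. For measurement, K562 cells (2×10^6 cells/mL) received 10 μM compound for 30 min, and aliquots were heated for 3 min over 48°C-58°C, pooled, and extracted at 4°C in PBS with 0.5% NP-40. Soluble protein, the supernatant after 21,000xg for 90 min, was quantified by TMTpro 16plex LC-MS/MS with equalised channel sums.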

sotrastaurin = compound: CN1CCN(c2nc(C3=C(c4c[nH]c5ccccc45)C(=O)NC3=O)c3ccccc3n2)CC1 [sotrastaurin]
Method in brief: as §1

alvocidib = compound: CN1CC[C@H](c2c(O)cc(O)c3c(=O)cc(-c4ccccc4Cl)oc23)[C@H](O)C1 [alvocidib]
Method in brief: as §1

Tubastatin A = compound: CN1CCc2c(c3ccccc3n2Cc2ccc(C(=O)NO)cc2)C1 [Tubastatin A]
Method in brief: as §1

[1] = compound: CNC(=O)C1=CC=CC=C1NC2=NC(=NC=C2Cl)NC3=C(C=C(C=C3)N4CCOCC4)OC
Method in brief: as §1

defactinib = compound: CNC(=O)c1ccc(Nc2ncc(C(F)(F)F)c(NCc3nccnc3N(C)S(C)(=O)=O)n2)cc1 [defactinib]
Method in brief: as §1

[2] = compound: CNc1nc(-c2ccc3c(N)n[nH]c3c2)cc(N2C[C@@H](C(=O)NC3CCCCC3)CC[C@H]2C)n1
Method in brief: as §1

[3] = compound: COC(=O)[C@H](CCSC)NC(=O)C1=C(C=C(C=C1)NC[C@H](CS)N)C2=CC=CC=C2
Method in brief: as §1

rucaparib = compound: CNCc1ccc(-c2[nH]c3cc(F)cc4c3c2CCNC4=O)cc1 [rucaparib]
Method in brief: as §1

encorafenib = compound: COC(=O)N[C@@H](C)CNc1nccc(-c2cn(C(C)C)nc2-c2cc(Cl)cc(NS(C)(=O)=O)c2F)n1 [encorafenib]
Method in brief: as §1

Measured: log2 fold change

VEZT (UniProt Q9HBM0)
inactive: saracatinib -0.035 | sotrastaurin 0.071 | alvocidib 0.12 | Tubastatin A 0.074 | [1] -0.044 | defactinib -0.083 | [2] 0.055 | [3] -0.08

VDAC1 (UniProt P21796)
inactive: saracatinib 0.074 | sotrastaurin 0.035 | Tubastatin A -0.014 | [1] 0.011 | defactinib 0.005 | rucaparib -0.022 | [2] -0.026 | encorafenib -0.03 | [3] 0.014

WDR82 (UniProt Q6UXN9)
inactive: saracatinib 0.004 | sotrastaurin 0.03 | alvocidib 0.118 | Tubastatin A -0.004 | [1] 0.002 | defactinib 0.108 | rucaparib 0.185 | [2] 0.018 | encorafenib 0.03 | [3] -0.007

VEZF1 (UniProt Q14119)
inactive: saracatinib 0.142 | sotrastaurin -0.072 | alvocidib 0.286 | [1] 0.078 | defactinib 0.105 | rucaparib 0.232 | [2] -0.072 | encorafenib 0.182 | [3] 0.088

WDR13 (UniProt Q9H1Z4)
inactive: saracatinib 0.029 | sotrastaurin -0.01 | alvocidib -0.088 | Tubastatin A -0.019 | [1] -0.083 | defactinib -0.06 | rucaparib 0.048 | [2] -0.043 | encorafenib -0.025 | [3] -0.012

VHL (UniProt P40337)
inactive: saracatinib 0.043 | sotrastaurin -0.002 | alvocidib -0.188 | rucaparib 0.191 | [2] 0.048 | encorafenib 0.085

WIZ (UniProt O95785)
inactive: saracatinib -0.059 | sotrastaurin -0.007 | alvocidib -0.026 | Tubastatin A 0.003 | [1] -0.108 | defactinib -0.036 | rucaparib 0.056 | [2] 0.003 | encorafenib 0.019 | [3] -0.04

WIZ isoform 3 (UniProt O95785)
inactive: saracatinib -0.047 | sotrastaurin -0.015 | alvocidib -0.014 | Tubastatin A 0.226 | [1] -0.089 | defactinib 0.046 | rucaparib 0.036 | [2] 0.036 | encorafenib 0.098 | [3] 0.034

WDR34 (UniProt Q96EX3)
inactive: saracatinib 0.175 | sotrastaurin 0.022 | alvocidib -0.01 | [1] -0.027 | defactinib -0.014 | [2] 0.021 | [3] 0.05

VDAC2 (UniProt P45880)
inactive: saracatinib 0.046 | sotrastaurin 0.031 | alvocidib 0.012 | Tubastatin A -0.053 | [1] -0.012 | defactinib -0.012 | rucaparib -0.013 | [2] -0.022 | encorafenib -0.015 | [3] 0.001

WBP2 (UniProt Q969T9)
inactive: saracatinib 0.06 | sotrastaurin -0.003 | alvocidib -0.046 | Tubastatin A -0.007 | [1] -0.013 | defactinib -0.015 | rucaparib -0.016 | [2] -0.074 | encorafenib 0.003 | [3] 0.04

WDR5 (UniProt P61964)
inactive: saracatinib 0.047 | sotrastaurin -0.011 | alvocidib 0.102 | Tubastatin A 0.019 | [1] 0.022 | defactinib 0.078 | rucaparib 0.147 | [2] -0.004 | encorafenib 0.066 | [3] 0.017

VPS26A (UniProt O75436)
inactive: saracatinib 0.028 | sotrastaurin -0.009 | alvocidib -0.049 | Tubastatin A -0.015 | [1] -0.001 | defactinib -0.076 | rucaparib -0.083 | [2] -0.006 | encorafenib 0.053 | [3] -0.08

VIPAS39 (UniProt Q9H9C1)
inactive: saracatinib -0.231 | sotrastaurin -0.022 | alvocidib -0.233 | Tubastatin A 0.009 | [1] -0.204 | defactinib -0.119 | [2] 0.176 | [3] -0.18

XIAP (UniProt P98170)
inactive: saracatinib -0.149 | sotrastaurin -0.119 | Tubastatin A 0.002 | [1] -0.033 | defactinib -0.12 | rucaparib 0.107 | [2] -0.075 | encorafenib 0.081 | [3] 0.033

WDR48 (UniProt Q8TAF3)
inactive: saracatinib 0.021 | sotrastaurin 0.027 | alvocidib 0.008 | Tubastatin A -0.019 | [1] -0.022 | defactinib -0.038 | rucaparib 0.02 | [2] -0.061 | encorafenib -0.025 | [3] 0.026

WBP11 (UniProt Q9Y2W2)
inactive: saracatinib 0.068 | sotrastaurin 0.038 | alvocidib 0.023 | Tubastatin A -0.024 | [1] -0.046 | defactinib 0.035 | rucaparib 0.014 | [2] -0.018 | encorafenib -0.014 | [3] 0.046

VPS52 (UniProt Q8N1B4)
inactive: saracatinib -0.012 | sotrastaurin -0.107 | Tubastatin A 0.074 | [1] -0.047 | defactinib -0.031 | rucaparib 0.121 | [2] -0.01 | encorafenib 0.02 | [3] -0.072

WDR18 (UniProt Q9BV38)
inactive: saracatinib 0.057 | sotrastaurin -0.001 | Tubastatin A 0.008 | [1] -0.032 | defactinib -0.051 | rucaparib -0.009 | [2] -0.038 | encorafenib 0.001 | [3] 0.003

WDHD1 (UniProt O75717)
inactive: saracatinib -0.027 | sotrastaurin -0.067 | Tubastatin A 0.079 | [1] 0.075 | defactinib -0.201 | rucaparib -0.06 | [2] 0 | encorafenib 0.119 | [3] -0.022

WDR41 (UniProt Q9HAD4)
inactive: saracatinib 0.071 | sotrastaurin -0.037 | Tubastatin A -0.054 | [1] -0.046 | defactinib -0.007 | rucaparib 0.015 | [2] -0.031 | encorafenib 0.008 | [3] 0.036

WDR37 isoform 2 (UniProt Q9Y2I8)
inactive: saracatinib -0.094 | sotrastaurin -0.01 | Tubastatin A -0.019 | [1] -0.077 | defactinib 0 | rucaparib 0.064 | [2] -0.108 | encorafenib 0.084 | [3] -0.007

VPS33A (UniProt Q96AX1)
inactive: saracatinib -0.036 | sotrastaurin -0.174 | Tubastatin A 0.033 | [1] -0.043 | defactinib -0.06 | rucaparib 0.045 | [2] -0.013 | encorafenib -0.003 | [3] -0.025

WNK1 isoform 7 (UniProt Q9H4A3)
inactive: saracatinib 0.022 | sotrastaurin 0.003 | Tubastatin A -0.005 | [1] -0.047 | defactinib 0.003 | rucaparib 0.013 | [2] -0.035 | encorafenib 0.012 | [3] 0.006

WARS2 (UniProt Q9UGM6)
inactive: saracatinib -0.037 | sotrastaurin 0.014 | Tubastatin A -0.04 | [1] 0.018 | defactinib -0.065 | rucaparib 0.04 | [2] 0.006 | encorafenib -0.011 | [3] -0.057

Quoted from the entries so far (2 entries):
VPS33A (UniProt Q96AX1)
inactive: saracatinib -0.036 | sotrastaurin -0.174 | Tubastatin A 0.033 | [1] -0.043 | defactinib -0.06 | rucaparib 0.045 | [2] -0.013 | encorafenib -0.003 | [3] -0.025

WNK1 isoform 7 (UniProt Q9H4A3)
inactive: saracatinib 0.022 | sotrastaurin 0.003 | Tubastatin A -0.005 | [1] -0.047 | defactinib 0.003 | rucaparib 0.013 | [2] -0.035 | encorafenib 0.012 | [3] 0.006

Following part.

VPS53 isoform 4 (UniProt Q5VIR6)
inactive: saracatinib 0.029 | sotrastaurin -0.102 | Tubastatin A 0.017 | [1] -0.009 | defactinib -0.056 | rucaparib 0.061 | [2] -0.028 | encorafenib 0.06 | [3] -0.001

WASHC2A (UniProt Q641Q2)
inactive: saracatinib 0.013 | sotrastaurin 0.001 | Tubastatin A 0.016 | [1] 0.015 | defactinib 0.01 | rucaparib 0.045 | [2] -0.039 | encorafenib 0.019 | [3] 0.017

VPS11 (UniProt Q9H270)
inactive: saracatinib -0.003 | sotrastaurin -0.08 | Tubastatin A 0.004 | [1] -0.018 | defactinib -0.066 | rucaparib 0.082 | [2] -0.021 | encorafenib 0.023 | [3] -0.01

WDCP (UniProt Q9H6R7)
inactive: saracatinib -0.039 | sotrastaurin -0.034 | Tubastatin A -0.032 | [1] 0 | defactinib -0.016 | rucaparib 0.14 | [2] -0.02 | encorafenib 0.043 | [3] -0.006
